# Only a part is listed here, and it is no random draw. Measured potencies and affinities stand elsewhere. The source made the active and inactive calls. How the calls were made is not given here.
# Assay: BHK-21 cell toxicity, dose response, cytotoxicity control, plate reader, cherry-pick samples (AID 687030);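 further: cells were exposed to compound for three days before reading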
# Conditions: BHK-21 cells; at 19.5 µM (top of the series)
row,SMILES,"activity change, negative = toxicity"
1,CCCCCCCCc1ccc(O)cc1,inactive: -4.83%
